Taken from: PubChem BioAssay AID1259424 (University of Nebraska Medical Center, 2018)

Test: 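Rank knockdowns across the genome by resemblance to the KSR1 depletion profile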 (primary screen)
System: human HCT116 colon cancer cells
Knock-down reagent: siRNA pool against human genes, 50 nM
Measurement: 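Six signature mRNAs by branched-DNA multiplex assay, scaled to two housekeeping genes and non-targeting median, log2; matched to mean KSR1 knockdown profile by Pearson correlation and euclidean distance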
Direction: mean correlation with KSR1 profile: higher = expression change more like KSR1 knockdown; mean distance from KSR1 profile: higher = expression change less like KSR1 knockdown
The whole screen tested about 14,000 reagents; shown is a random part of them. 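Higher correlation or smaller distance means closer resemblance to KSR1 loss; control wells, including KSR1 knockdowns, recur on many plates.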 Reagents against one gene are numbered here. Not all columns of the deposit are shown. Reagent sequences are not shown. Not stated in the record: the time to read-out.

For AHSG, the values are mean correlation with KSR1 profile -0.25; mean distance from KSR1 profile 2.49.
Silencing of TRMT1L came out at: mean correlation with KSR1 profile -0.429; mean distance from KSR1 profile 2.39.
For DDX1, the values are mean correlation with KSR1 profile -0.191; mean distance from KSR1 profile 2.75.
For NUP62CL, the entry reads mean correlation with KSR1 profile -0.242; mean distance from KSR1 profile 1.55.
For ABCB7, the entry reads mean correlation with KSR1 profile -0.822; mean distance from KSR1 profile 3.34.
With knock-down of BLMH, the screen gave mean correlation with KSR1 profile -0.221; mean distance from KSR1 profile 1.47.
With knock-down of CGB2, the screen gave mean correlation with KSR1 profile 0.17; mean distance from KSR1 profile 2.28.
Depletion of TBR1 gave: mean correlation with KSR1 profile 0.09; mean distance from KSR1 profile 2.23.
FAM162A scored mean correlation with KSR1 profile -0.394; mean distance from KSR1 profile 1.76.
For GRAMD1C, the entry reads mean correlation with KSR1 profile -0.246; mean distance from KSR1 profile 2.65.
For PDXK #1, the values are mean correlation with KSR1 profile -0.139; mean distance from KSR1 profile 2.23.
With knock-down of PDXK #2, the record shows mean correlation with KSR1 profile 0.636; mean distance from KSR1 profile 1.85.
With knock-down of PDXK #3, the screen gave mean correlation with KSR1 profile 0.432; mean distance from KSR1 profile 2.31.
Against LINC00467, the values are mean correlation with KSR1 profile 0.267; mean distance from KSR1 profile 2.19.
With knock-down of RTN4RL1 the results were mean correlation with KSR1 profile -0.47; mean distance from KSR1 profile 1.94.
After knock-down of UPF1 the results were mean correlation with KSR1 profile 0.43; mean distance from KSR1 profile 1.47.
After knock-down of ICOS the results were mean correlation with KSR1 profile 0.0841; mean distance from KSR1 profile 2.13.
ZBED2 scored mean correlation with KSR1 profile 0.175; mean distance from KSR1 profile 2.75.
Knock-down of SORD came out at: mean correlation with KSR1 profile -0.568; mean distance from KSR1 profile 2.8.
With knock-down of SRGAP3, the screen gave mean correlation with KSR1 profile -0.273; mean distance from KSR1 profile 1.78.
With knock-down of CD300LF, the screen gave mean correlation with KSR1 profile -0.476; mean distance from KSR1 profile 2.68.
Against ATE1, the entry reads mean correlation with KSR1 profile -0.164; mean distance from KSR1 profile 2.97.
Depletion of SNRPD3 resulted in: mean correlation with KSR1 profile -0.402; mean distance from KSR1 profile 2.98.
CHFR scored mean correlation with KSR1 profile -0.148; mean distance from KSR1 profile 1.37.
BAG4 showed mean correlation with KSR1 profile -0.463; mean distance from KSR1 profile 1.84.
After knock-down of CCDC81, the record shows mean correlation with KSR1 profile -0.129; mean distance from KSR1 profile 1.25.
Depletion of SERPINI2 gave: mean correlation with KSR1 profile -0.0511; mean distance from KSR1 profile 2.09.
RPGR showed mean correlation with KSR1 profile 0.707; mean distance from KSR1 profile 2.01.
Depletion of LOC54073 (retired record) gave: mean correlation with KSR1 profile -0.498; mean distance from KSR1 profile 3.85.
Knock-down of PRKG1 gave: mean correlation with KSR1 profile 0.485; mean distance from KSR1 profile 1.34.
With knock-down of NHSL3, the record shows mean correlation with KSR1 profile -0.079; mean distance from KSR1 profile 2.4.
With knock-down of MKNK1, the screen gave mean correlation with KSR1 profile 0.648; mean distance from KSR1 profile 0.895.
Against COQ6 the deposit lists mean correlation with KSR1 profile 0.0579; mean distance from KSR1 profile 1.74.
Against STRC the deposit lists mean correlation with KSR1 profile -0.163; mean distance from KSR1 profile 3.19.
After knock-down of IK the results were mean correlation with KSR1 profile -0.191; mean distance from KSR1 profile 2.68.
Depletion of TBX1 resulted in: mean correlation with KSR1 profile -0.484; mean distance from KSR1 profile 3.76.
